According to patent publication US12729225B2, “Non-canonical SWI/SNF complex and uses thereof” (Dana-Farber Cancer Institute, Inc., priority 2018, dated 2026):

Tested on: mSWI/SNF complexes
Assay: mSWI/SNF complex purification with HA-tagged baits and mass spectrometry (peptide counts)
Parameters: species or system human
[1] = 293_HA-BRD7: HA-BRD7 bait purification, total peptide count per co-purified protein
[2] = 293_HA-BRD7: HA-BRD7 bait purification, unique peptide count per co-purified protein
[3] = 293_HA-BRD7 bait purification, mass spectrometry, total peptide count per identified protein
[4] = 293_HA-BRD7 bait purification, mass spectrometry, unique peptide count per identified protein
[5] = 293_HA-BRD7 bait purification, mass spectrometry, total peptides per co-purified protein
[6] = 293_HA-BRD7 bait purification, mass spectrometry, unique peptides per co-purified protein
[7] = 293_HA-DPF2 purification, total peptides
[8] = 293_HA-DPF2 purification, unique peptides
[9] = total peptide count of the co-purified protein, 293_HA-BRD9 (HA-BRD9 bait, mass spectrometry), Table 3b
[10] = unique peptide count of the co-purified protein, 293_HA-BRD9 (HA-BRD9 bait, mass spectrometry), Table 3b

| Substance | Total [1] | Unique [2] | Total [5] | Unique [6] | other results |
| --- | --- | --- | --- | --- | --- |
| PABPC1 | 9 | 9 | – | – | – |
| DLD | 9 | 9 | – | – | – |
| ##GOLGA4 | – | – | – | – | Total [3]: 1; Unique [4]: 1 |
| ESYT2 | – | – | 4 | 4 | – |
| HSPB1 | – | – | 2 | 2 | – |
| KPNA6 | – | – | 2 | 2 | – |
| MYH11 | – | – | – | – | Total [3]: 1; Unique [4]: 1 |
| VDAC1 | 6 | 5 | – | – | – |
| TAF5L | – | – | – | – | Total [3]: 1; Unique [4]: 1 |
| TRIM21 | – | – | 2 | 2 | – |
| ##TIGD4 | – | – | – | – | Total [3]: 1; Unique [4]: 1 |
| CCT6A | – | – | 3 | 3 | – |
| HSPA2 | 7 | 7 | – | – | Total [7]: 1; Unique [8]: 1; Total [9]: 2; Unique [10]: 2 |
| DNAJA1 | 4 | 4 | – | – | – |
| SLC27A4 | – | – | – | – | Total [3]: 1; Unique [4]: 1 |
| CXorf56 | 4 | 4 | – | – | – |
| RBM25 | – | – | 4 | 4 | – |
| SLC25A1 | 8 | 8 | – | – | – |
| TARDBP | 4 | 4 | – | – | – |
| CLTC | 5 | 5 | – | – | – |
| CCT7 | – | – | 2 | 1 | – |
| EEF1G | 6 | 5 | – | – | – |
| ##LRP4 | – | – | – | – | Total [3]: 1; Unique [4]: 1 |

| Substance | Total [1] | Unique [2] | Total [5] | Unique [6] | other results |
| --- | --- | --- | --- | --- | --- |
| LAS1L | – | – | 4 | 4 | – |
| PSIP1 | – | – | – | – | Total [3]: 1; Unique [4]: 1 |
| TUBB3 | 5 | 4 | – | – | Total [3]: 1; Unique [4]: 1; Total [9]: 1; Unique [10]: 1 |
| ##MYH14 | – | – | – | – | Total [3]: 1; Unique [4]: 1 |
| BCLAF1 | – | – | – | – | Total [3]: 1; Unique [4]: 1 |
| KPNA4 | 5 | 5 | – | – | – |
| XRCC5 | 9 | 8 | – | – | – |
| TIMM50 | 5 | 5 | – | – | – |
| CCT5 | – | – | – | – | Total [3]: 1; Unique [4]: 1 |
| HAX1 | – | – | 2 | 2 | – |
| YARS | – | – | 3 | 3 | – |
| GCN1L1 | – | – | – | – | Total [3]: 1; Unique [4]: 1 |
| SRP54 | – | – | – | – | Total [3]: 1; Unique [4]: 1 |
| ILF2 | 8 | 8 | – | – | – |
| SMARCA2 | 146 | 85 | – | – | Total [7]: 130; Unique [8]: 74; Total [9]: 49; Unique [10]: 27 |
| SNRNP200 | 20 | 18 | – | – | – |
| CHD3 | – | – | – | – | Total [9]: 1; Unique [10]: 1 |
| SLC7A5 | – | – | 2 | 2 | – |
| APOD | – | – | – | – | Total [9]: 1; Unique [10]: 1 |
| MCM6 | – | – | 2 | 2 | – |
| SSRP1 | – | – | – | – | Total [3]: 1; Unique [4]: 1; Total [9]: 1; Unique [10]: 1 |
| DDX52 | – | – | 4 | 3 | – |
| RFC2 | – | – | 3 | 3 | – |

| Substance | Total [1] | Unique [2] | Total [5] | Unique [6] | other results |
| --- | --- | --- | --- | --- | --- |
| PSMD1 | – | – | 2 | 2 | – |
| DDX39A | – | – | – | – | Total [3]: 1; Unique [4]: 1 |
| DDX39B | 9 | 8 | – | – | – |
| HADHA | 15 | 15 | – | – | Total [9]: 1; Unique [10]: 1 |
| SP1 | – | – | 1 | 1 | – |
| ELAVL1 | – | – | 3 | 3 | – |
| PHB2 | 11 | 11 | – | – | – |
| SDHA | – | – | 4 | 3 | – |
| MGST3 | – | – | – | – | Total [3]: 1; Unique [4]: 1 |
| EPB41L2 | – | – | 4 | 4 | – |
| TUBB | 5 | 5 | – | – | Total [7]: 1; Unique [8]: 1; Total [9]: 2; Unique [10]: 1 |
| DHX9 | 15 | 14 | – | – | Total [9]: 1; Unique [10]: 1 |
| PSMC5 | – | – | – | – | Total [3]: 1; Unique [4]: 1 |
| SPTAN1 | – | – | 3 | 3 | – |
| CKMT1A | 5 | 5 | – | – | – |
| LAMP2 | – | – | – | – | Total [3]: 1; Unique [4]: 1 |
| KLF12 | – | – | 2 | 1 | – |
| ITCH | – | – | – | – | Total [3]: 1; Unique [4]: 1 |
| DES | – | – | – | – | Total [3]: 1; Unique [4]: 1 |
| PRDX3 | 4 | 4 | – | – | – |
| HNRNPAB | – | – | 3 | 3 | Total [3]: 1; Unique [4]: 1 |
| LYZ | – | – | – | – | Total [9]: 1; Unique [10]: 1 |
| DDX41 | 36 | 33 | – | – | Total [9]: 3; Unique [10]: 3 |

| Substance | Total [1] | Unique [2] | Total [5] | Unique [6] | other results |
| --- | --- | --- | --- | --- | --- |
| EIF4A1 | – | – | 3 | 3 | – |
| MPG | 4 | 4 | – | – | – |
| VIM | 8 | 8 | – | – | Total [7]: 2; Unique [8]: 2; Total [9]: 1; Unique [10]: 1 |
| INTS3 | – | – | 3 | 2 | – |
| HIST1H1A | – | – | – | – | Total [3]: 1; Unique [4]: 1; Total [9]: 1; Unique [10]: 1 |
| ZNF768 | 8 | 8 | – | – | – |
| NSA2 | – | – | 3 | 3 | – |
| SRSF1 | – | – | – | – | Total [3]: 1; Unique [4]: 1 |
| HNRNPU | 5 | 5 | – | – | – |
| FLNA | 4 | 4 | – | – | – |
| SCFD1 | – | – | – | – | Total [3]: 1; Unique [4]: 1 |
| HSP90AA1 | – | – | 3 | 3 | – |
| PPP1CA | – | – | 3 | 3 | – |
| HIST1H1C | – | – | – | – | Total [9]: 1; Unique [10]: 1 |
| CDC42BPB | – | – | – | – | Total [9]: 1; Unique [10]: 1 |
| GLTSCR2 | – | – | 3 | 3 | – |
| EZR | 7 | 7 | – | – | – |
| DYNC1H1 | 5 | 5 | – | – | – |
| EMD | 5 | 5 | – | – | – |
| HSPA8 | 28 | 25 | – | – | Total [7]: 1; Unique [8]: 1; Total [9]: 14; Unique [10]: 13 |
| REV3L | – | – | – | – | Total [3]: 1; Unique [4]: 1 |
| YWHAQ | – | – | 1 | 1 | – |
| EIF5A | – | – | 1 | 1 | – |

| Substance | Total [1] | Unique [2] | Total [5] | Unique [6] | other results |
| --- | --- | --- | --- | --- | --- |
| SUPT16H | – | – | 2 | 2 | – |
| AIFM1 | 19 | 17 | – | – | Total [9]: 6; Unique [10]: 6 |
| SMARCA5 | – | – | – | – | Total [3]: 1; Unique [4]: 1 |
| NONO | 7 | 6 | – | – | – |
| GLUD1 | – | – | 3 | 3 | – |
| SNRNP70 | – | – | 2 | 2 | – |
| ATP5H | 6 | 6 | – | – | – |
| P4HB | – | – | – | – | Total [3]: 1; Unique [4]: 1 |
| CAMTA1 | – | – | – | – | Total [3]: 1; Unique [4]: 1 |
| MMTAG2 | 18 | 14 | – | – | – |
| SPTLC1 | – | – | 3 | 3 | – |
| CHD4 | – | – | 3 | 3 | – |
| ZIK1 | – | – | – | – | Total [3]: 1; Unique [4]: 1 |
| ATP5B | 38 | 30 | – | – | Total [7]: 6; Unique [8]: 5; Total [9]: 10; Unique [10]: 10 |
| HSPA5 | 34 | 29 | – | – | Total [7]: 5; Unique [8]: 5; Total [9]: 20; Unique [10]: 15 |
| LARP4 | – | – | – | – | Total [3]: 1; Unique [4]: 1 |
| HSPA1A | 20 | 19 | – | – | Total [9]: 9; Unique [10]: 8 |
| TFAM | – | – | 4 | 4 | – |
| PDIA6 | 4 | 4 | – | – | – |
| DLST | – | – | – | – | Total [3]: 1; Unique [4]: 1 |
| TOMM7 (MVKLSKEAKQRLQQLFKGSQFAIRWGFIPLVIYLGFKRGADPGMPEPTVLSLLWG; UniProt Q9P0U1 1-55, looked up) | – | – | – | – | Total [3]: 1; Unique [4]: 1 |
| TUBB2B | – | – | – | – | Total [3]: 1; Unique [4]: 1 |
| ##ASCC3 | – | – | – | – | Total [3]: 1; Unique [4]: 1 |

| Substance | Total [1] | Unique [2] | Total [5] | Unique [6] | other results |
| --- | --- | --- | --- | --- | --- |
| ADCK3 | – | – | 2 | 2 | – |
| SEC61A1 | 5 | 4 | – | – | – |
| PTBP1 | 9 | 9 | – | – | – |
| ##INF2 | – | – | – | – | Total [3]: 1; Unique [4]: 1 |
| RAB1A | – | – | – | – | Total [3]: 1; Unique [4]: 1 |
| POTEKP | – | – | 5 | 3 | Total [7]: 3; Unique [8]: 3 |
| ##RAD50 | – | – | – | – | Total [3]: 1; Unique [4]: 1 |
| PPIB | – | – | 2 | 2 | – |
| GPI | – | – | 2 | 2 | – |
| ##SMIM7 (VLNFKLKKKDTQGFGEESREPSTGDNIREFLLSLRYFRIFIALWNIFMMFCMIVLFGS; UniProt Q9BQ49 18-75, looked up) | – | – | – | – | Total [3]: 1; Unique [4]: 1 |
| RAD50 | – | – | 2 | 2 | – |
| EPB41L4B | – | – | 2 | 2 | – |
| RIF1 | – | – | 2 | 2 | – |
| PRSS1 | – | – | – | – | Total [9]: 3; Unique [10]: 1 |
| NUDT21 | 6 | 6 | – | – | – |
| ABCC1 | – | – | – | – | Total [3]: 1; Unique [4]: 1 |
| PCID2 | – | – | – | – | Total [3]: 1; Unique [4]: 1 |
| DNAJA2 | – | – | 3 | 3 | – |
| KRT16 | 6 | 4 | – | – | – |
| HDAC2 | – | – | 2 | 2 | – |
